No constants are given. Whether binding was seen depends on the method and setting. Some entries that bind do so weakly or less than the wild type. Blank lines part the entries; values can stand above or below the binder they belong to.
Biological target: T1, MED22 (human) (UniProt Q15528)
T1 sequence: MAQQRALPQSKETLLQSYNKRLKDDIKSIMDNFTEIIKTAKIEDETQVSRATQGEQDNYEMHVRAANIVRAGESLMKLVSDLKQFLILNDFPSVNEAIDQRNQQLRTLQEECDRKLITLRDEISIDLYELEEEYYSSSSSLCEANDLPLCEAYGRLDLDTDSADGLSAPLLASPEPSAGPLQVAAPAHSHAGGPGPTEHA
Assay: cryo-EM structure

- binding: binds
B1: MED30 (protein, UniProt Q96HR3 1-178)
chain: MSTPPLAASGMAPGPFAGPQAQQAAREVNTASLCRIGQETVQDIVYRTMEIFQLLRNMQLPNGVTYHTGTYQDRLTKLQDNLRQLSVLFRKLRLVYDKCNENCGGMDPIPVEQLIPYVEEDGSKNDDRAGPPRFASEERREIAEVNKKLKQKNQQLKQIMDQLRNLIWDINAMLAMRN

- binding: binds
B2: MED11 (protein, UniProt Q9P086 1-117)
chain: MATYSLANERLRALEDIEREIGAILQNAGTVILELSKEKTNERLLDRQAAAFTASVQHVEAELSAQIRYLTQVATGQPHEGSSYSSRKDCQMALKRVDYARLKLSDVARTCEQMLEN

- binding: binds
B3: MED28 (protein, UniProt Q9H204 1-178)
chain: MAAPLGGMFSGQPPGPPQAPPGLPGQASLLQAAPGAPRPSSSTLVDELESSFEACFASLVSQDYVNGTDQEEIRTGVDQCIQKFLDIARQTECFFLQKRLQLSVQKPEQVIKEDVSELRNELQRKDALVQKHLTKLRHWQQVLEDINVQHKKPADIPQGSLAYLEQASANIPAPLKPT

Reference: doi:10.1101/2021.03.11.435010
